# The whole screen tested about 330,000 compounds, of which about 610 (0.18%) were called active. The shares of active, inactive and inconclusive entries below differ from those in the screen. Calls follow the shape of the full dose curve. Potencies beside an inconclusive call are fits to weak or partial responses and may not hold up.
# Experiment: qHTS of Yeast-based Assay for SARS-CoV PLP; also: nearly all actives have a fitted effect of over 55% in size; as to activity, positive = growth rescue: 0% is about no effect
# Details: S. cerevisiae expressing SARS-CoV PLpro; Potency: growth rescue; activity, positive = growth rescue: at 32.9 µM (top of the series)
# Potency is read from the fitted curve at half-maximal effect.
SMILES,Potency,"activity, positive = growth rescue"
CCc1c(O)nc(SCC(=O)Nc2ccc3c(c2)CCC3)[nH]c1=O,"inconclusive: 3.98 µM [activator, single point]",
O=C(Nc1cc(Sc2nc3ccccc3s2)cc([N+](=O)[O-])c1)c1ccccc1F,"inconclusive: 2.82 µM [activator, single point]",
COc1ccc(CCNC(=O)C(C(=O)c2ccccc2)n2ccccc2=O)cc1OC (centres undefined),"inconclusive: 7.94 µM [activator, partial curve, poor fit]",
O=C(Cc1cccs1)NCc1ccncc1,,inactive: -1.71%
COc1ccc(NC(=O)CCCN(C)S(=O)(=O)c2ccc(C)cc2)cc1,,inactive: -5.97%
COc1ccc(C2/C=C\CN(S(=O)(=O)/C=C/c3ccccc3)CC(=O)N2Cc2ccc(F)cc2)cc1 (centres undefined),,inactive: -3.38%
Cc1nnc2n(-c3ccccc3)c(=O)c3c4c(sc3n12)COC(C)(C)C4,"inconclusive: 3.98 µM [activator, single point]",
CC12CCC(C(=O)N(CSC(=S)N/N=C\c3ccccc3Cl)C1=O)C2(C)C (centres undefined),"inconclusive: 11.2 µM [activator, partial curve]",
CC(=O)NCc1cn2c(C)csc2n1,"inconclusive: 20 µM [activator, partial curve]",
COc1ccc(C2C(C(=O)NCC3CCCO3)c3cc(OC)c(OC)cc3C(=O)N2C)cc1OC (centres undefined),"inconclusive: 20 µM [activator, single point]",
CCn1cc(CNC(=O)c2ccc(Cl)c([N+](=O)[O-])c2)c(C)n1,"inconclusive: 0.355 µM [activator, full curve, poor fit]",
Cc1ccc2[nH]c(=O)c3cc(C(=O)N(C)Cc4ccco4)sc3c2c1,"inconclusive: 3.16 µM [activator, single point]",
Cc1ccc(S(=O)(=O)C(C#N)c2nc3ccccc3nc2N2CCN(C)CC2)cc1 (centres undefined),"inconclusive: 8.91 µM [activator, partial curve]",
Cc1ccc(/C=N/NC(=O)C2=NNC(c3ccccc3)(c3ccccc3)C2)c(O)c1,active: 3.55 µM,
c1ccc2[nH]c(NC3=NCCC3)nc2c1,,inactive: 0.122%
O=C(Cn1c(N2CCN(c3ccccc3)CC2)nc2ccccc21)c1ccccc1,"inconclusive: 20 µM [activator, single point]",
CCn1c(O)c(/C=N/NC(=O)c2ccncc2)c(=O)n(CC)c1=S,"inconclusive: 15.8 µM [activator, single point]",
COC(=O)c1ccc(Sc2ccccc2NS(=O)(=O)c2ccc(OC)cc2)nc1,,inactive: -1.31%
Cc1ccc(-n2[nH]c(C)c(/C=N/NC(=O)c3cccc([N+](=O)[O-])c3)c2=O)cc1C,active: 1.26 µM,

# A section taken from the entries so far, as a working copy:
SMILES,Potency,"activity, positive = growth rescue"
CCn1cc(CNC(=O)c2ccc(Cl)c([N+](=O)[O-])c2)c(C)n1,"inconclusive: 0.355 µM [activator, full curve, poor fit]",
Cc1ccc2[nH]c(=O)c3cc(C(=O)N(C)Cc4ccco4)sc3c2c1,"inconclusive: 3.16 µM [activator, single point]",

# Reference: PubChem BioAssay AID485353 (National Center for Advancing Translational Sciences (NCATS), 2010)
